Data as given in the supplement of paper PMC3334620.
Whole data set: some 33,000 sequences, median “E-score (-0.5 to 0.5)” near -0.015, cut for the highest 2% near 0.3. The list shows a part of the results.

target: T1, Abf1 (UniProt P14164); assay: PBM E-score (8-mer binding enrichment) (E-score (-0.5 to 0.5)); higher = stronger / more preferred TF binding; conditions: protein concentration: 200 nM; construct: GST-full length
T1 sequence: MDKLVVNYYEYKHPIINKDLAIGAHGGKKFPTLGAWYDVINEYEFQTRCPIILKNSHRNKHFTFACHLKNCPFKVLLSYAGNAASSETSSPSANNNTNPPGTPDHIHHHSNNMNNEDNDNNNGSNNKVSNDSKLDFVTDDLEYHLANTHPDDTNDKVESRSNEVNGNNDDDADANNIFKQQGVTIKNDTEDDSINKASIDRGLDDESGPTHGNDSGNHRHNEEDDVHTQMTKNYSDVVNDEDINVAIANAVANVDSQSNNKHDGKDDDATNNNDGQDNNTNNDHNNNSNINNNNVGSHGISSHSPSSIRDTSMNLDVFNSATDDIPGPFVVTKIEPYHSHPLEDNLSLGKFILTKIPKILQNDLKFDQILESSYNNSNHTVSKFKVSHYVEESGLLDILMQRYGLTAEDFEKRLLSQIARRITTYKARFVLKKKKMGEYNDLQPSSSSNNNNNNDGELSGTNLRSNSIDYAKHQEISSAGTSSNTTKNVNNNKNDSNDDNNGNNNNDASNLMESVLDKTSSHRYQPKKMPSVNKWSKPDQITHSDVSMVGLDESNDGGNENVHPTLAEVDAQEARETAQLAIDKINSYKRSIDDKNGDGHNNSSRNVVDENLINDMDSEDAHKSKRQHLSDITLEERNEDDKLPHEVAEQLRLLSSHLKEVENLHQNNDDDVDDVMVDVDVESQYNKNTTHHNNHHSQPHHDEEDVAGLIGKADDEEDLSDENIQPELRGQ
In short: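 Yeast transcription factors, full-length or as DNA-binding domains, were expressed with a GST tag using PURExpress in vitro transcription/translation. At about 100-200 nM they were applied to universal all-10-mer Agilent arrays, double-stranded by primer extension on fresh or once-stripped slides. Fluorescent anti-GST detected bound protein, and masliner normalised the scans. E-scores for ungapped eight-base words, pooled with reverse complements, came from the Universal PBM Analysis Suite.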

| Sequence | PBM E-score |
| --- | --- |
| CGCGAATA | -0.0651 |
| CAGAAATC | 0.0523 |
| CAGACGTC | -0.103 |
| ACCCACAG | -0.137 |
| ATCAAGTC | 0.119 |
| AGTCTCTG | -0.0939 |
| ACACACCG | 0.0052 |
| AGAAAATC | 0.173 |
| AGATCGAT | -0.0787 |
| ACGATTTC | 0.245 |
| CAGCGGGA | -0.0787 |
| GCAGGTAC | -0.221 |
| ACCATGGG | -0.293 |
| GTATACTA | -0.0911 |
| CCCATGGG | 0.0429 |
| AGGAAAAA | 0.0885 |
| GCCGCAAA | 0.0198 |
| TATTAGAA | 0.129 |
| ACCCTAAA | -0.0503 |
| AGAAGCAT | 0.14 |
| CGTAATGC | 0.139 |
| TCAAGAAA | 0.0974 |

| Sequence | PBM E-score |
| --- | --- |
| AATACCTA | 0.124 |
| CACCAAGG | -0.309 |
| GAGAAAAA | 0.109 |
| TCCGGTAA | -0.0159 |
| ATTCGATA | 0.154 |
| GGAAAAAA | 0.222 |
| CAAGACGC | -0.0963 |
| ATGCTACC | 0.0183 |
| AAAGCGAT | 0.219 |
| CGCTACAG | -0.106 |
| CATGCGGG | -0.0913 |
| AGGCGGGA | -0.144 |
| CAAGCGTC | -0.115 |
| ATGGCTAC | 0.196 |
| GACTACTA | 0.108 |
| GAGACATC | 0.161 |
| CTATAAGC | -0.143 |
| CAGGTACG | -0.0976 |
| CGCAATCA | -0.0511 |
| AAGAAAAT | 0.123 |
| GAAGGGCC | -0.184 |
| GTCCAATA | 0.154 |

| Sequence | PBM E-score |
| --- | --- |
| GAGACGCA | -0.0136 |
| GCTGCGTA | -0.0932 |
| CAGGTGTA | -0.12 |
| GCGCGGAA | -0.12 |
| CAGTGAAC | -0.016 |
| GATAAGAC | 0.0408 |
| GTAACCAA | 0.114 |
| ACTTTCAA | 0.159 |
| GACGTAAA | 0.199 |
| GCCTGCGC | -0.167 |
| ACACCGGA | -0.0729 |
| CCATTCTA | 0.0476 |
| AGTACCTG | 0.0482 |
| ACGCGGCT | -0.0744 |
| AGCTACAT | 0.118 |
| CGAAAATC | 0.231 |
| TATCGTCA | 0.33 |
| ACTTCGTG | 0.0796 |
| CATTGCCA | 0.095 |
| CCACTCCA | -0.316 |
| CGAGATCA | 0.262 |
| CTTCGGGA | -0.0152 |

| Sequence | PBM E-score |
| --- | --- |
| CCGCGTGA | 0.116 |
| TCAAGCAA | 0.0828 |
| AGCCGACG | -0.0935 |
| AAGCGATT | 0.0803 |
| CCATAGTC | -0.138 |
| ACAATGGT | -0.215 |
| GAATGGTC | 0.0192 |
| CCCGTCCA | 0.152 |
| AGACCTCG | 0.00988 |
| GATAAGTA | 0.188 |
| ACCTGTAC | 0.0101 |
| ATTCCAGG | -0.0919 |
| AACCCCAA | -0.155 |
| GATCCGCA | -0.106 |
| CCCGCATC | -0.1 |
| CCAGGGTC | -0.217 |
| AGGCTGTC | -0.105 |
| TACGGCAA | 0.301 |
| CCTGACAA | -0.064 |
| CGAACGAC | 0.273 |

Some of the entries so far, with tabs.
Sequence	PBM E-score
CGTAATGC	0.139
GCTGCGTA	-0.0932
GCCTGCGC	-0.167
AGTACCTG	0.0482
CCATAGTC	-0.138
